Measurements: PubChem BioAssay AID588499 (NMMLSC, 2011)
About 610 (0.17%) of roughly 360,000 compounds were called active. Inconclusive results, whose numbers are uncertain, are shown with a selection of clear calls. Rule as the data show it: active = inhibition above about 30%; inconclusive = no clear call, values can overlap the other calls; inactive = below that.

system: Botulinum neurotoxin type A light chain protease (Clostridium botulinum A str. ATCC 3502); test: blockers of BoNT/A LC substrate cleavage – biochemical, flow cytometry, MLPCN library, primary screen (AID 588499); conditions: multiplex microsphere protease substrate cleavage, at 10 µM, stronger effect = higher value; also: plate controls were buffer without enzyme for full effect and enzyme alone for no effect

| SMILES | inhibition |
| --- | --- |
| O=C(Nc1ccccc1)C1CCCCC1 | inconclusive: 1% |
| COCCNC(=O)C(c1ccc(C)o1)N(C(=O)c1snc(C(N)=O)c1N)c1cc(C)cc(C)c1 (stereo not given) | inconclusive: 3% |
| Cc1cc2cc(CNS(=O)(=O)c3ccccc3)ccc2n1C | active: 83.3% |
| COC(=O)c1ccc(OC(=O)C2CC(=O)N(c3cccc(C)c3)C2)cc1 (stereo not given) | inconclusive: -1.3% |
| Brc1ccc(-c2nnc3c4ccccc4nc(N4CCOCC4)n23)cc1 | inconclusive: 4.6% |
| Cc1onc(-c2ccc(Cl)cc2Cl)c1-c1csc(N/N=C/c2ccccc2)n1 | inconclusive: 3.9% |
| O=C(c1cccc([N+](=O)[O-])c1)N1CCN(C/C=C/c2ccccc2)CC1 | inconclusive: -37.2% |
| Cc1ccc(N2C(=O)CC(n3nc(C)cc3C)C2=O)cc1 (stereo not given) | inconclusive: 0% |
| CCOCCCn1c(SCC(=O)Nc2ccc(NC(C)=O)cc2)nc2ccccc2c1=O | inactive: -1.7% |
| COc1ccccc1NC(=O)c1csc2c1CCCC2 | inconclusive: 5% |
| O=C(Nc1nnc([C@H]2C[C@H](O)[C@@H](CO)O2)s1)c1ccccc1F | inactive: 0.2% |
| CCc1nnc(NS(=O)(=O)c2ccc(NC(=O)CCC(=O)OC)cc2)s1 | inactive: 3.2% |
| CCN(CC)c1ccc2c(cc1=O)[C@@H](NC)CCc1cc(OC)c(OC)c(OC)c1-2 | inactive: 0.6% |
| O=C(CCNC(=O)c1ccc(Br)cc1)Nc1cccc(S(=O)(=O)N2CCCCC2)c1 | inconclusive: -5.8% |
| CC(C)Oc1cccc(-c2cc(C(=O)N3CCN(c4ncccn4)CC3)c3ccccc3n2)c1 | inconclusive: -1.6% |
| COC(=O)c1cc(C(=O)NCc2ccc3c(c2)OCO3)cc([N+](=O)[O-])c1 | inconclusive: -6.5% |
| COCCNC(=O)C(c1ccc(C)o1)N(C(=O)Cn1nnc2ccccc21)c1ccccc1 (stereo not given) | inactive: 0.3% |
| CC(C[N+](C)(C)C)OC(=O)C1(c2ccccc2)CCCC1 (stereo not given) | inconclusive: 8.6% |
| O=C(Nc1ccccc1)N1CCC(C(=O)N(Cc2ccco2)Cc2cccs2)CC1 | inconclusive: 3% |
| Cc1ccccc1Cn1cc(NC(=O)c2nc3ncccn3n2)cn1 | inconclusive: 28% |
| O=C(CSc1ncn(-c2ccccc2)n1)NCc1ccccc1 | inconclusive: -2% |
| O=C(COc1ccccc1Br)NCc1ccco1 | inactive: -0.7% |
| Cc1cc(C)n2nc(C)c(-c3ccc(Cl)cc3)c2n1 | inactive: -1.7% |

Arranged by molecular weight (ascending): 3 of the compounds above.

| SMILES | inhibition |
| --- | --- |
| COC(=O)c1cc(C(=O)NCc2ccc3c(c2)OCO3)cc([N+](=O)[O-])c1 | inconclusive: -6.5% |
| CCc1nnc(NS(=O)(=O)c2ccc(NC(=O)CCC(=O)OC)cc2)s1 | inactive: 3.2% |
| CCN(CC)c1ccc2c(cc1=O)[C@@H](NC)CCc1cc(OC)c(OC)c(OC)c1-2 | inactive: 0.6% |

Further compounds:

| SMILES | inhibition |
| --- | --- |
| Cc1ccc(C(=O)Nc2nc(C(N)C(C)C)cs2)cc1 (stereo not given) | inactive: 0.3% |
| O=S1(=O)C[C@H](N2CCC[C@@H]2CO)[C@@H](COCc2ccccc2)N1 | inactive: -0.4% |
| CN(C)S(=O)(=O)c1cccc(-n2sc3ccccc3c2=O)c1 | active: 33.1% |
| CCOc1ccc2c(C)cc(=O)oc2c1OCC | inactive: -0.3% |
| CCOC(=O)c1cnc(SC2CC(=O)N(c3ccc(OC)c(OC)c3)C2=O)nc1N (stereo not given) | inconclusive: -4.3% |
| Cn1c(-c2ccc(Cl)cc2)cnc1N | inconclusive: 0.3% |
| NNC(=O)c1cc2cc(OC(F)(F)F)ccc2[nH]1 | inconclusive: -3.4% |
| CC1Cc2cc(/C(O)=C3/C(=O)C(=O)N(CCN4CCOCC4)C3c3ccc(N(C)C)cc3)ccc2O1 (stereo not given) | inactive: -0.1% |
| Cc1ccc(C(=O)Oc2coc(CSc3nnc(NC(=O)C4CC4)s3)cc2=O)cc1 | active: 30% |
| O=C(Cc1ccccc1)c1ccccn1 | active: 33.2% |
| Cc1ccc(-c2noc(CSc3nnc(-c4ccncc4)n3-c3ccc(F)cc3)n2)cc1 | inconclusive: -1.2% |
| Cc1cc(Cl)ccc1NNC(=O)c1snnc1C | inconclusive: -2.1% |
| Cc1cc(=O)c2c(o1)C(=O)c1occc1C2=O | inactive: -0.3% |
| O=C(COc1ccc(N2CC(C(=O)O)CC2=O)cc1)Nc1cccc(C(F)(F)F)c1 (stereo not given) | inconclusive: -1.9% |
| Cc1cc2cc(CNC(=O)Cc3ccc([N+](=O)[O-])cc3)ccc2n1C | active: 76.8% |
| CN(CC(=O)Nc1nc2ccccc2s1)S(=O)(=O)c1ccc(Br)cc1 | inactive: 3.2% |
| O=C(NC(=S)NN1CCCCC1c1cccnc1)c1ccc(Br)cc1 (stereo not given) | inconclusive: -0.5% |
| CCOCCCn1c(=S)[nH]c2cc(C(=O)N3CCC(C(N)=O)CC3)ccc2c1=O | inactive: 1.9% |
| Cc1cccc(-n2nnnc2SCC(=O)c2cc(C)n(Cc3ccco3)c2C)c1 | inconclusive: -0.8% |
| O=C(CN1C(=O)NC2(CCc3ccccc32)C1=O)Nc1ccc(N2CCOCC2)cc1 (stereo not given) | inactive: -0.2% |
| Cc1cccc(NC(=O)C2CCN(S(=O)(=O)c3c(C)noc3/C=C/c3ccco3)CC2)n1 | inactive: -0.1% |
| Cc1cc(C)n(C(=O)c2cc([N+](=O)[O-])cc([N+](=O)[O-])c2)n1 | inconclusive: 5.4% |
